# Reference: patent EP1167342A1, “Novel substituted nitrocatechols, their use in the treatment of some central and peripheral nervous system disorders and pharmaceutical compositions containing them” (Portela & Ca., S.A., priority 2000, dated 2002)
# Some of these results come from one statement about several compounds together.
# Test system: Liver COMT
# Assay: Ex vivo COMT activity in mouse liver homogenates after administration of test compound by gastric tube
# Set-up: species or system NMRI mice
# Settings: for time at which the maximal inhibitory effect is achieved: liver COMT, after oral administration; for inhibition of liver COMT: mice, oral administration, statement in words
smiles,measurement,value
"CC1CCCCN1CCC(=O)c1cc(O)c(O)c([N+](=O)[O-])c1.Cl (centres unmarked) [Compound 26, 1-(3,4-Dihydroxy-5-nitro-phenyl)-3-(2-methyl-piperidin-1-yl)-propan-1-one hydrochloride]",time at which the maximal inhibitory effect is achieved,≤ 1 h
same,inhibition of liver COMT,potent inhibitors of liver COMT
"CC1CCCCN1CC(=O)c1cc(O)c(O)c([N+](=O)[O-])c1.Cl (centres unmarked) [Compound 6, 1-(3,4-Dihydroxy-5-nitro-phenyl)-2-(2-methyl-piperidin-1-yl)-ethanone hydrochloride]",time at which the maximal inhibitory effect is achieved,≤ 1 h
same,inhibition of liver COMT,potent inhibitors of liver COMT
"Cl.O=C(CN1CCCCCC1)c1cc(O)c(O)c([N+](=O)[O-])c1 [Compound 1, 2-Azepan-1-yl-1-(3,4-dihydroxy-5-nitro-phenyl)-ethanone hydrochloride]",time at which the maximal inhibitory effect is achieved,≤ 1 h
same,inhibition of liver COMT,potent inhibitors of liver COMT
"Cl.Cl.O=C(CN1CCN(c2cccc(C(F)(F)F)c2)CC1)c1cc(O)c(O)c([N+](=O)[O-])c1 [Compound 13, 1-(3,4-Dihydroxy-5-nitro-phenyl)-2-[4-(3-trifluoromethyl-phenyl)-piperazin-1-yl]-ethanone dihydrochloride]",time at which the maximal inhibitory effect is achieved,≤ 1 h
same,inhibition of liver COMT,potent inhibitors of liver COMT
"Cl.O=C(CCN1CCCCCC1)c1cc(O)c(O)c([N+](=O)[O-])c1 [Compound 20, 3-Azepan-1-yl-1-(3,4-dihydroxy-5-nitro-phenyl)-propan-1-one hydrochloride]",time at which the maximal inhibitory effect is achieved,≤ 1 h
same,inhibition of liver COMT,potent inhibitors of liver COMT
"Cl.Cl.Cl.O=C(CN1CCN(c2ccccn2)CC1)c1cc(O)c(O)c([N+](=O)[O-])c1 [Compound 14, 1-(3,4-Dihydroxy-5-nitro-phenyl)-2-(4-pyridin-2-yl-piperazin-1-yl)-ethanone trihydrochloride]",time at which the maximal inhibitory effect is achieved,≤ 1 h
same,inhibition of liver COMT,potent inhibitors of liver COMT
"CC1CN(CC(=O)c2cc(O)c(O)c([N+](=O)[O-])c2)CC(C)O1.Cl (centres unmarked) [Compound 11, 1-(3,4-Dihydroxy-5-nitro-phenyl)-2-(2,6-dimethyl-morpholin-4-yl)-ethanone hydrochloride]",time at which the maximal inhibitory effect is achieved,≤ 1 h
same,inhibition of liver COMT,potent inhibitors of liver COMT
"COc1ccc(OCC(=O)c2cc(O)c(O)c([N+](=O)[O-])c2)cc1 [Compound 9, 1-(3,4-Dihydroxy-5-nitro-phenyl)-2-(4-methoxy-phenoxy)-ethanone]",time at which the maximal inhibitory effect is achieved,≤ 1 h
same,inhibition of liver COMT,potent inhibitors of liver COMT
"Cl.O=C(CC(c1ccccc1)N1CCOCC1)c1cc(O)c(O)c([N+](=O)[O-])c1 (centres unmarked) [Compound 5, 1-(3,4-Dihydroxy-5-nitro-phenyl)-3-morpholin-4-yl-3-phenyl-propan-1-one hydrochloride]",time at which the maximal inhibitory effect is achieved,≤ 1 h
same,inhibition of liver COMT,potent inhibitors of liver COMT
"Cl.Cl.Cl.Cl.O=C(CCN1CCN(c2ncccn2)CC1)c1cc(O)c(O)c([N+](=O)[O-])c1 [Compound 23, 1-(3,4-Dihydroxy-5-nitro-phenyl)-3-(4-pyrimidin-2-yl-piperazin-1-yl)-propan-1-one tetrahydrochloride]",time at which the maximal inhibitory effect is achieved,≤ 1 h
same,inhibition of liver COMT,potent inhibitors of liver COMT
"O=C(COc1ccc2ccccc2c1)c1cc(O)c(O)c([N+](=O)[O-])c1 [Compound 10, 1-(3,4-Dihydroxy-5-nitro-phenyl)-2-(naphthalen-2-yloxy)-ethanone]",time at which the maximal inhibitory effect is achieved,≤ 1 h
same,inhibition of liver COMT,potent inhibitors of liver COMT
"Cl.Cl.O=C(CCN1CCN(C(=O)c2ccccc2)CC1)c1cc(O)c(O)c([N+](=O)[O-])c1 [Compound 29, 3-(4-Benzoyl-piperazin-1-yl)-1-(3,4-dihydroxy-5-nitro-phenyl)-propan-1-one dihydrochloride]",time at which the maximal inhibitory effect is achieved,≤ 1 h
same,inhibition of liver COMT,potent inhibitors of liver COMT
"Cl.O=C(CCN1CCCCC1)c1cc(O)c(O)c([N+](=O)[O-])c1 [Compound 2, 1-(3,4-Dihydroxy-5-nitro-phenyl)-3-piperidin-1-yl-propan-1-one hydrochloride]",time at which the maximal inhibitory effect is achieved,≤ 1 h
same,inhibition of liver COMT,potent inhibitors of liver COMT
"O=C(COc1cccc2ccccc12)c1cc(O)c(O)c([N+](=O)[O-])c1 [Compound 25, 1-(3,4-Dihydroxy-5-nitro-phenyl)-2-(naphthalen-1-yloxy)-ethanone]",time at which the maximal inhibitory effect is achieved,≤ 1 h
same,inhibition of liver COMT,potent inhibitors of liver COMT
"Cl.Cl.O=C(CCN1CCN(c2ccccc2Cl)CC1)c1cc(O)c(O)c([N+](=O)[O-])c1 [Compound 22, 3-[4-(2-Chloro-phenyl)-piperazin-1-yl]-1-(3,4-dihydroxy-5-nitro-phenyl)-propan-1-one dihydrochloride]",time at which the maximal inhibitory effect is achieved,≤ 1 h
same,inhibition of liver COMT,potent inhibitors of liver COMT
"Cl.O=C(CCN1CCCCCCC1)c1cc(O)c(O)c([N+](=O)[O-])c1 [Compound 16, 3-Azocan-1-yl-1-(3,4-dihydroxy-5-nitro-phenyl)-propan-1-one hydrochloride]",time at which the maximal inhibitory effect is achieved,≤ 1 h
same,inhibition of liver COMT,potent inhibitors of liver COMT
"COc1ccc(C(=O)N2CCN(CCC(=O)c3cc(O)c(O)c([N+](=O)[O-])c3)CC2)cc1.Cl.Cl [Compound 30, 1-(3,4-Dihydroxy-5-nitro-phenyl)-3-[4-(4-methoxy-benzoyl)-piperazin-1-yl]-propan-1-one dihydrochloride]",time at which the maximal inhibitory effect is achieved,≤ 1 h
same,inhibition of liver COMT,potent inhibitors of liver COMT
"Cl.O=C(CCN1CCc2ccccc2C1)c1cc(O)c(O)c([N+](=O)[O-])c1 [Compound 27, 3-(3,4-Dihydro-1H-isoquinolin-2-yl)-1-(3,4-dihydroxy-5-nitro-phenyl)-propan-1-one hydrochloride]",time at which the maximal inhibitory effect is achieved,≤ 1 h
same,inhibition of liver COMT,potent inhibitors of liver COMT
"Cl.O=C(CC(c1ccccc1)N1CCCCC1)c1cc(O)c(O)c([N+](=O)[O-])c1 (centres unmarked) [Compound 3, 1-(3,4-Dihydroxy-5-nitro-phenyl)-3-phenyl-3-piperidin-1-yl-propan-1-one hydrochloride]",time at which the maximal inhibitory effect is achieved,≤ 1 h
same,inhibition of liver COMT,potent inhibitors of liver COMT
"Cl.O=C(CN1CCc2ccccc2C1)c1cc(O)c(O)c([N+](=O)[O-])c1 [Compound 21, 2-(3,4-Dihydro-1H-isoquinolin-2-yl)-1-(3,4-dihydroxy-5-nitro-phenyl)-ethanone hydrochloride]",time at which the maximal inhibitory effect is achieved,≤ 1 h
same,inhibition of liver COMT,potent inhibitors of liver COMT
"Cl.O=C(CCN1CCSCC1)c1cc(O)c(O)c([N+](=O)[O-])c1 [Compound 19, 1-(3,4-Dihydroxy-5-nitro-phenyl)-3-thiomorpholin-4-yl-propan-1-one hydrochloride]",time at which the maximal inhibitory effect is achieved,≤ 1 h
same,inhibition of liver COMT,potent inhibitors of liver COMT
"CCOC(=O)C1CCN(CCC(=O)c2cc(O)c(O)c([N+](=O)[O-])c2)CC1.Cl [Compound 17, 1-[3-(3,4-Dihydroxy-5-nitro-phenyl)-3-oxo-propyl]-piperidine-4-carboxylic acid ethyl ester hydrochloride]",time at which the maximal inhibitory effect is achieved,≤ 1 h
same,inhibition of liver COMT,potent inhibitors of liver COMT
"O=C(COc1ccccc1)c1cc(O)c(O)c([N+](=O)[O-])c1 [Compound 8, 1-(3,4-Dihydroxy-5-nitro-phenyl)-2-phenoxy-ethanone]",time at which the maximal inhibitory effect is achieved,≤ 1 h
same,inhibition of liver COMT,potent inhibitors of liver COMT
"CC1CC(C)CN(CC(=O)c2cc(O)c(O)c([N+](=O)[O-])c2)C1.Cl (centres unmarked) [Compound 12, 1-(3,4-Dihydroxy-5-nitro-phenyl)-2-(3,5-dimethyl-piperidin-1-yl)-ethanone hydrochloride]",time at which the maximal inhibitory effect is achieved,≤ 1 h
same,inhibition of liver COMT,potent inhibitors of liver COMT
"Cl.O=C(CC(c1ccccc1)N1CCCC1)c1cc(O)c(O)c([N+](=O)[O-])c1 (centres unmarked) [Compound 4, 1-(3,4-Dihydroxy-5-nitro-phenyl)-3-phenyl-3-pyrrolidin-1-yl-propan-1-one hydrochloride]",time at which the maximal inhibitory effect is achieved,≤ 1 h
same,inhibition of liver COMT,potent inhibitors of liver COMT
"Cl.Cl.O=C(CCN1CCN(c2cccc(C(F)(F)F)c2)CC1)c1cc(O)c(O)c([N+](=O)[O-])c1 [Compound 18, 1-(3,4-Dihydroxy-5-nitro-phenyl)-3-[4-(3-trifluoromethyl-phenyl)-piperazin-1-yl]-propan-1-one dihydrochloride]",time at which the maximal inhibitory effect is achieved,≤ 1 h
same,inhibition of liver COMT,potent inhibitors of liver COMT
"Cc1ccc(SCC(=O)c2cc(O)c(O)c([N+](=O)[O-])c2)cc1 [Compound 28, 1-(3,4-Dihydroxy-5-nitro-phenyl)-2-p-tolylsulphanyl-ethanone]",time at which the maximal inhibitory effect is achieved,≤ 1 h
same,inhibition of liver COMT,potent inhibitors of liver COMT
"Cl.O=C(CCN1CCC(Cc2ccccc2)CC1)c1cc(O)c(O)c([N+](=O)[O-])c1 [Compound 24, 3-(4-Benzyl-piperidin-1-yl)-1-(3,4-dihydroxy-5-nitro-phenyl)-propan-1-one hydrochloride]",time at which the maximal inhibitory effect is achieved,≤ 1 h
same,inhibition of liver COMT,potent inhibitors of liver COMT
